# The inconclusive results got no clear call from the source; some entries with a clear call stand among them for comparison. For part of these data: Where the call is inconclusive, the potency comes from a doubtful curve fit. Active and inactive are the calls of the source. Unless noted, cut-off not given; nearly all actives show AC50 up to about 26 µM.
# How the values were obtained:
# [1] = growth inhibition of DIPG glioma cells, dose response, cell-based, SU-DIPG-XVII, MIPE5.0, CellTiter-Glo, qHTS (AID 1347060); details: SU-DIPG-XVII viability, CellTiter-Glo ATP luminescence;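 on AC50: cells exposed to compound for 48 hours before viability readout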
# [2] = growth inhibition of DIPG glioma cells, dose response, cell-based, SU-DIPG-XIII, MIPE4.0, CellTiter-Glo, qHTS (AID 1347061; cut-off not given, nearly all actives have AC50 up to about 37 µM;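 further: cells exposed to compound for 48 hours before readout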); details: SU-DIPG-XIII viability, CellTiter-Glo ATP luminescence
# [3] = growth inhibition of DIPG glioma cells, dose response, cell-based, JHH-DIPG-1, MIPE4.0, CellTiter-Glo, qHTS (AID 1347062; cut-off not given, nearly all actives have AC50 up to about 27 µM;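 on AC50: cells exposed to compound for two days before readout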); details: JHH-DIPG-1 viability, CellTiter-Glo ATP luminescence
# [4] = growth inhibition of DIPG glioma cells, dose response, cell-based, SU-DIPG-IV, MIPE4.0, CellTiter-Glo, qHTS (AID 1347063; cut-off not given, nearly all actives have AC50 up to about 30 µM;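 further: compound exposure lasted 48 hours before the viability readout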); details: SU-DIPG-IV viability, CellTiter-Glo ATP luminescence
# [5] = viability loss in pontine glioma line – cell-based, SU-DIPG-XXV, MIPE5.0, CellTiter-Glo, qHTS, dose response (AID 1347065); details: CellTiter-Glo ATP luminescence;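 further: cells exposed to compound for 48 hours before ATP readout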
# [6] = SU-DIPG-VI glioma cell viability, MIPE4.0 library, CellTiter-Glo luminescence, qHTS (AID 1347066; cut-off not given, nearly all actives have AC50 up to about 30 µM;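 further: cells exposed to compound for 48 hours before readout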); details: CellTiter-Glo ATP luminescence
# [7] = JHH-DIPG-1 glioma cell viability, MIPE5.0 library, CellTiter-Glo luminescence, qHTS (AID 1347067); details: JHH-DIPG-1 glioma viability, CellTiter-Glo ATP luminescence;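 further: cells exposed to compound for 48 hours before readout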
# [8] = SU-DIPG-XXV glioma cell viability, MIPE5.0 library, qHTS (AID 1347068; cut-off not given, nearly all actives have IC50 up to about 30 µM;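 on IC50: cells exposed to compound for 48 hours before viability readout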)
# [9] = growth inhibition of DIPG glioma cells, dose response, cell-based, SU-DIPG-XIII, MIPE5.0, CellTiter-Glo, qHTS (AID 1347064; cut-off not given, nearly all actives have AC50 up to about 23 µM;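 further: cells exposed to compound for 48 hours before the viability read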); details: SU-DIPG-XIII viability, CellTiter-Glo ATP luminescence
smiles,measurement,setting,value
c1cc(N[C@@H]2CCNC2)nc(-c2cnc3ccc(-c4cn[nH]c4)cn23)c1,AC50,[1],inconclusive: 14.8 µM [cytotoxic]
same,AC50,[2],inconclusive: 26.4 µM [cytotoxic]
same,AC50,[3],active: 11.8 µM
same,AC50,[4],active: 14.8 µM
same,AC50,[5],active: 16.6 µM
same,AC50,[6],active: 18.7 µM
same,AC50,[7],active: 16.6 µM
same,IC50,[8],active: 11.8 µM
CCCS(=O)(=O)Nc1ccc(F)c(C(=O)c2c[nH]c3ncc(-c4ccc(Cl)cc4)cc23)c1F,AC50,[1],inconclusive: 18.6 µM [cytotoxic]
same,AC50,[2],inconclusive: 14.8 µM [cytotoxic]
same,outcome,[3],inactive
same,AC50,[4],active: 14.8 µM
same,AC50,[5],inconclusive: 16.6 µM [cytotoxic]
same,AC50,[7],inconclusive: 37.2 µM
same,outcome,[8],inactive
O=c1cc(O)c(Cl)c[nH]1,outcome,[1],inactive
same,outcome,[2],inactive
same,AC50,[3],inconclusive: 3.32 µM [cytotoxic]
same,AC50,[4],inconclusive: 0.743 µM [cytotoxic]
same,outcome,[5],inactive
same,outcome,[8],inactive
C[C@@H](NC(=O)c1ncnc(N)c1Cl)c1ncc(C(=O)Nc2cc(C(F)(F)F)c(Cl)cn2)s1,AC50,[1],active: 16.6 µM
same,AC50,[2],active: 18.7 µM
same,AC50,[3],inconclusive: 10.5 µM [cytotoxic]
same,AC50,[4],inconclusive: 13.2 µM [cytotoxic]
same,AC50,[5],inconclusive: 26.3 µM [cytotoxic]
same,outcome,[8],inactive
COc1ccc(C(=O)CC(=O)c2ccc(C(C)(C)C)cc2)cc1,AC50,[1],inconclusive: 18.6 µM [cytotoxic]
same,AC50,[2],inconclusive: 3.32 µM [cytotoxic]
same,AC50,[3],active: 3.72 µM
same,AC50,[9],inconclusive: 14.8 µM [cytotoxic]
same,outcome,[5],inactive
same,AC50,[6],inconclusive: 5.9 µM [cytotoxic]

# As a working copy, part of the list above:
smiles,measurement,setting,value
c1cc(N[C@@H]2CCNC2)nc(-c2cnc3ccc(-c4cn[nH]c4)cn23)c1,AC50,[1],inconclusive: 14.8 µM [cytotoxic]
same,AC50,[2],inconclusive: 26.4 µM [cytotoxic]
same,AC50,[3],active: 11.8 µM
same,AC50,[4],active: 14.8 µM
same,AC50,[5],active: 16.6 µM
same,AC50,[6],active: 18.7 µM
same,AC50,[7],active: 16.6 µM
same,IC50,[8],active: 11.8 µM
